The results in this text go back to publication PMC3561153.

Among the targets are prf^K1128A-3HA (tomato); Prf-3HA (tomato) (UniProt Q96485); prf^D1416V-3HA (tomato).
Holding throughout (experiment): co-IP; extracts of N. benthamiana leaves (transient expression; some in stable 35S:Pto plants; with or without co-expressed AvrPto, AvrPtoB or avrPtoB^F479A); HA-tagged Prf forms precipitated on anti-HA HA-7 Sepharose, 2 h at 4°C; 150 mM Tris-HCl pH 7.5, 150 mM NaCl, 5 mM EDTA, 5% glycerol, 10 mM DTT; immunoblots
On the technique in general: A western blot detects proteins with antibodies after separation by electrophoresis.

Assay [1] deals with N-term-3HA (prf^1–546-3HA) (tomato).

Changes are numbered by the printed parent chain. Names and notes keep the numbering of the source. These are yes or no findings as the source states them, for the method shown. In cells and extracts the contact can be indirect. Binding calls can cover weak binding; strength is not graded here. For some of these results: Sequences can lack the tags named with a protein.

B1: Pto (enzyme, UniProt Q40234 1-321)
chain: MGSKYSKATNSINDALSSSYLVPFESYRVPLVDLEEATNNFDHKFLIGHGVFGKVYKGVLRDGAKVALKRRTPESSQGIEEFETEIETLSFCRHPHLVSLIGFCDERNEMILIYKYMENGNLKRHLYGSDLPTMSMSWEQRLEICIGAARGLHYLHTRAIIHRDVKSINILLDENFVPKITDFGISKKGTELDQTHLSTVVKGTLGYIDPEYFIKGRLTEKSDVYSFGVVLFEVLCARSAIVQSLPREMVNLAEWAVESHNNGQLEQIVDPNLADKIRPESLRKFGDTAVKCLALSSEDRPSMGDVLWKLEYALRLQESVI
For the molecule B1, the binding result (in assay [1]; with prf^K1128A-3HA (tomato); with Prf-3HA (tomato); in the assay with prf^D1416V-3HA (tomato)) was “binds” throughout.

B2: pto^T199A-FLAG (enzyme, UniProt Q40234 1-321)
chain: B1 chain with T199A
As for B2, the binding result in the assay with Prf-3HA (tomato) is recorded as “binds”.

B3: Pto-FLAG (enzyme, UniProt Q40234 1-321)
chain: B1 chain
For the molecule B3, the binding entry with Prf-3HA (tomato) is “binds”.

B4: pto^S198A/T199A-FLAG (enzyme, UniProt Q40234 1-321)
chain: B1 chain with S198A, T199A
B4: the binding entry with Prf-3HA (tomato) is given as “binds”.

B5: pto^D164N-FLAG (enzyme, UniProt Q40234 1-321)
chain: B1 chain with D164N
B5: the binding result with Prf-3HA (tomato) was “binds”.

B6: pto^S198A-FLAG (enzyme, UniProt Q40234 1-321)
chain: B1 chain with S198A
In the case of B6, the binding result in the assay with Prf-3HA (tomato) is “binds”.

B7: Pto-5Myc (enzyme, UniProt Q40234 1-321)
chain: B1 chain
Consider B7, for which the binding result with Prf-3HA (tomato) was “binds”.
